Data on 1 substance can be found in patent publication US20140186357A1.

Chains of the proteins cited; added tags and fusions are not shown. Lines headed by an entry give the natural chain unless they say otherwise; changes in a name come on top.
UniProt P56817: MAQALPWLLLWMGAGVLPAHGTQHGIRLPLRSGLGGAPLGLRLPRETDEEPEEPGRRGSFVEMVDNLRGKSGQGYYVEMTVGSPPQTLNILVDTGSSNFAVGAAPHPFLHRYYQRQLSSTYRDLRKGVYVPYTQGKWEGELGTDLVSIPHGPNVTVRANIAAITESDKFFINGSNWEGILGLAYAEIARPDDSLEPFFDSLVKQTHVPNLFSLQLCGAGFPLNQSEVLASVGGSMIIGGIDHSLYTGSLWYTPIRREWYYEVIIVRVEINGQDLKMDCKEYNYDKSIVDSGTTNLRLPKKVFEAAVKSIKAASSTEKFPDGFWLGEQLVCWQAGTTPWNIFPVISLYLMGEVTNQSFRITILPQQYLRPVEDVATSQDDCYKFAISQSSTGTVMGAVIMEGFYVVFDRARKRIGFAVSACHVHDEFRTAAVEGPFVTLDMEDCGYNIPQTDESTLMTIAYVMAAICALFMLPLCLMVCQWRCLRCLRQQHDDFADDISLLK
UniProt P63165: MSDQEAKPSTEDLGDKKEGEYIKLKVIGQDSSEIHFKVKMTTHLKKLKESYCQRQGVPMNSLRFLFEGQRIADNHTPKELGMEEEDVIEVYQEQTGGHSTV

No constants are given. Whether binding was seen depends on the method and setting. In cells and extracts the contact can be indirect. Some binding calls cover weakened binding; strength is not graded here.

The target of experiment [1] is V5-tagged wild type BACE1 (β-secretase) (human) (UniProt P56817). Briefly: co-immunoprecipitation with anti-Myc antibody from H4 cell lysates.
Experiment [2] has the same target. Briefly: co-immunoprecipitation with anti-V5 antibody from HBvg cell lysates, Western blot with anti-Myc.

In the case of “Myc-tagged SUMO1 (small ubiquitin-like modifier 1) (from UniProt P63165 2-97)”, the binding entry in experiment [1] and in experiment [2] was “binds” throughout.
